For 1 substance, binding results are on record in paper PMC7519303.

Results are given in words; binding and its absence hold for the method and conditions named. For part of these data: Binding calls can cover weak binding; strength is not graded here. Tags and fused reporters may be left off the sequences shown.

For experiment [1], the target named is T1, MglA-His6 (M. xanthus) (UniProt Q1DB04).
T1 sequence: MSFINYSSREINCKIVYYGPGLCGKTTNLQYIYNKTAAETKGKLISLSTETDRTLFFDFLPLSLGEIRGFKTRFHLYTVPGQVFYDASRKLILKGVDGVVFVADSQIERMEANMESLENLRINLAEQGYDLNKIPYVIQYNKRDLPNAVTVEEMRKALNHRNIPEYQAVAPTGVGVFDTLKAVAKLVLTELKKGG
Briefly: pull-down; MglA-His6 preloaded with GDP, then mixed with SgmX-Strep; applied to Ni2+-NTA agarose, washed, eluted with 400 mM imidazole; SDS/PAGE, Coomassie stain; both purified.

Experiment [2] addresses T1, MglA-His6 (M. xanthus). Briefly: pull-down; MglA-His6 preloaded with GTP, then mixed with SgmX-Strep; applied to Ni2+-NTA agarose, washed, eluted with 400 mM imidazole; SDS/PAGE, Coomassie stain; both purified.
In experiment [3] the target is T1, MglA-His6 (M. xanthus). Kind of experiment: condition: only MglA-His6 without a preloaded nucleotide; pull-down; MglA-His6 without preloaded nucleotide, then mixed with SgmX-Strep; applied to Ni2+-NTA agarose, washed, eluted with 400 mM imidazole; SDS/PAGE, Coomassie stain; both purified.

For the substance “SgmX-Strep (C-terminal Strep-tagged SgmX variant) (M. xanthus)”, the binding entry in experiment [1] is given as “no binding (only MglA-His6 preloaded with GDP)”; in experiment [2], “binds”; in experiment [3] it was “no binding”.
